Measured values from patent publication US20180099046A1.
These are yes or no findings as the source states them, for the method shown. Binding can be weak; no strength is given.

Target: cynomolgus monkey sclerostin with a Flag tag (cyno-SOST-Flag) (cynomolgus monkey)
Assay: SPR (Biacore)

binding: binds
B1: humanized antibody Ab-5 (antibody, human IgG4 S228P, kappa, V domains shown)
VH: EVQLVQSGAEVKKPGASVKVSCKASGYTFTDYNLDWLRQAPGEGLEWIGDIDPNDGDILYNQKFRDRVTMTTDTSTSTAYMELRSLRSDDTAVYYCARRWAYYFDYWGQGTTVTVSS
VL: DIVMTQSPSSLSASVGDRVTITCKASQSVSNDVAWYQQKPGKSPKLLIYYTSNRFTGVPDRFSGSGSGTDFTLTISSLQPEDFATYFCQQDYSSPVTFGGGTKVEIKR
